Values quoted from earlier work in US20100286079A1, “COMPOSITION COMPRISING COVALENT CONJUGATES OF CHITOSAN AND AN ACIDIC DRUG AND PARENTERAL ADMINISTRATION” (priority 2007, published 2010).

Details: cited from earlier work

## CC(C)Cc1ccc(C(C)C(=O)O)cc1 (stereo not shown) [Ibuprofen]
  solubility in water: practically insoluble in water
